# Assay results

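Genome-wide siRNA knockdown in TC32 Ewing sarcoma cells, comparing luciferase light from an NR0B1-promoter reporter with a CMV-promoter reporter 48 hours after transfection. Each siRNA was applied at 20 nM. A z-score of the log NR0B1-over-CMV signal, less the median of siRNAs with the same seed; more negative means a stronger specific loss of the NR0B1 reporter.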

The strongest results of the screen are mostly left out here. Sequences are the guide (antisense) strand, without overhang.

{"strand": "UCUGUUCAAACUCACUGCG", "target gene": "SETD1A", "seed-corrected z-score": "-1.853"}
{"strand": "UUCUGAUCCCGUCUUCUUG", "target gene": "MYRIP", "seed-corrected z-score": "-0.001296"}
{"strand": "UAAGGCGUAACUAUGAUUC", "target gene": "LINC01556", "seed-corrected z-score": "0.1314"}
{"strand": "UGUUCAACUAGUGGAACAC", "target gene": "AP5M1", "seed-corrected z-score": "0.3339"}
{"strand": "ACUCCGAUGACAAUUGUUG", "target gene": "RNASE3", "seed-corrected z-score": "0.1066"}
{"strand": "UCUGAAAUUCGUGCAGUUC", "target gene": "ZNF83", "seed-corrected z-score": "0.9179"}
{"strand": "UUUCAUACACGUUGCUUUC", "target gene": "OTULIN", "seed-corrected z-score": "-1.029"}
{"strand": "UCCAGUGCAAACUUCUCCU", "target gene": "OSBPL5", "seed-corrected z-score": "-1.252"}
{"strand": "AGAAUAUCCAAUUGGUGCC", "target gene": "SLC5A7", "seed-corrected z-score": "-0.2617"}
{"strand": "UUUGGAACUCGCUGGAAGG", "target gene": "NXT1", "seed-corrected z-score": "0.7485"}
{"strand": "UUAGCAUUACCUGAGGGCC", "target gene": "TTF2", "seed-corrected z-score": "-0.1007"}
{"strand": "UUGUGACCCAUUGAGGUCC", "target gene": "RASL10A", "seed-corrected z-score": "-0.3567"}
{"strand": "UUCUGGAAAAACUGGAUGG", "target gene": "MRAS", "seed-corrected z-score": "0.08195"}
{"strand": "AUGUGAUCCAAAUAAUCUG", "target gene": "BRD1", "seed-corrected z-score": "0.7752"}
{"strand": "AGACAUACAAGGUUGCUGC", "target gene": "CFAP54", "seed-corrected z-score": "0.3785"}
{"strand": "AAUUUUCGGACUCGGAUUC", "target gene": "NOC2L", "seed-corrected z-score": "-0.4615"}
{"strand": "UUUACUGCGUUGUAGUUGC", "target gene": "GLCCI1", "seed-corrected z-score": "-1.098"}
{"strand": "UUAGCAUCUAGAACCUUCU", "target gene": "NARFL", "seed-corrected z-score": "0.6848"}
{"strand": "AACGAUAUACAAAUCUCUC", "target gene": "DOCK3", "seed-corrected z-score": "0.2332"}
{"strand": "AACAGUAUCAUUGCAGCUA", "target gene": "CMTM2", "seed-corrected z-score": "1.335"}
{"strand": "AACUUCUUUAGUUACUCCA", "target gene": "AMY1A", "seed-corrected z-score": "-0.1834"}
{"strand": "UACGUGUCAUCCUUGCUUG", "target gene": "MKX", "seed-corrected z-score": "-0.4114"}
{"strand": "AAGGUAUCAUCAAAAAUUC", "target gene": "CASC15", "seed-corrected z-score": "0.03394"}
{"strand": "AUAGGUGUAGAUGAUUCCG", "target gene": "CNR2", "seed-corrected z-score": "-0.07714"}
{"strand": "UACCUUAUUUAUCCAGUAC", "target gene": "CAMSAP2", "seed-corrected z-score": "-0.6458"}
{"strand": "UUCAUUCUCCUGGAUUUCU", "target gene": "TERF2IP", "seed-corrected z-score": "0.93"}
{"strand": "AGAUGGAUAAUCAUCUUUG", "target gene": "UBE2I", "seed-corrected z-score": "-0.344"}
{"strand": "UCCUUCACAAAAUCUUUGG", "target gene": "MAGEB16", "seed-corrected z-score": "0.4435"}
{"strand": "UCAGAGCUUGCACCGUUGC", "target gene": "LOC645397", "seed-corrected z-score": "0.1866"}

Some entries from above, unchanged:

AUGUGAUCCAAAUAAUCUG against BRD1 gave seed-corrected z-score 0.7752.
UCCUUCACAAAAUCUUUGG against MAGEB16 gave seed-corrected z-score 0.4435.
UUAGCAUUACCUGAGGGCC against TTF2 gave seed-corrected z-score -0.1007.

From PubChem BioAssay record AID1159506 (NCATS, 2015).